Values of other authors, collected in patent publication US11285170B2, “Fractionated antimicrobial compositions and use thereof” (priority 2017, dated 2022).

System: Pseudomonas aeruginosa AGR 18 and MR23 multiresistant
Settings: P. aeruginosa; cited from earlier work
For `NCC[C@H](O)C(=O)N[C@@H]1C[C@H](N)[C@@H](O[C@H]2O[C@H](CN)[C@@H](O)[C@H](O)[C@H]2O)[C@H](O)[C@H]1O[C@H]1O[C@H](CO)[C@@H](O)[C@H](N)[C@H]1O` [Amikacin], the Susceptibility breakpoint is given as ≤16 µg/mL. In the case of `C[C@H]1[C@H](NC(=O)/C(=N\OC(C)(C)C(=O)O)c2csc(N)n2)C(=O)N1S(=O)(=O)O` [Aztreonam, aztreonam], the Susceptibility breakpoint is listed as ≤8 µg/mL. For `CCN1CCN(C(=O)N[C@@H](C(=O)N[C@@H]2C(=O)N3[C@@H]2SC(C)(C)[C@@H]3C(=O)O)c2ccccc2)C(=O)C1=O` [Piperacillin], the Susceptibility breakpoint is given as ≤16 µg/mL. For `CC(C)(O/N=C(\C(=O)N[C@@H]1C(=O)N2C(C(=O)[O-])=C(C[n+]3ccccc3)CS[C@H]12)c1csc(N)n1)C(=O)O` [Ceftazidime], the Susceptibility breakpoint is listed as ≤8 µg/mL. In the case of `NC[C@H]1O[C@H](O[C@H]2[C@H](O)[C@@H](O[C@H]3O[C@H](CO)[C@@H](O)[C@H](N)[C@H]3O)[C@H](N)C[C@@H]2N)[C@H](N)C[C@@H]1O` [Tobramycin, tobramycin], the Susceptibility breakpoint is listed as ≤4 µg/mL.
